# According to PubChem BioAssay AID1487 (National Center for Advancing Translational Sciences (NCATS), 2009):
# In all, about 200,000 compounds went through this assay and about 25 (0.01%) were called active. This list was built around the results that the source calls inconclusive (neither active nor inactive); the mix of calls is not that of the screen. The call rests on the fitted dose curve; in most records, active means well fitted inhibition curve with a large enough effect in the signal ratio, with a control signal flat (not every such curve was filed as active); inconclusive means small, poorly fitted or top-dose-only effect, or effect the other way, or a change in a side signal; inactive means flat fitted curve, though single readings scatter; the % refers to the signal ratio. Where the call is inconclusive, the potency comes from a doubtful curve fit.
# Test: qHTS Assay for Modulators of Lamin A Splicing
# Conditions: HeLa LMNA splicing GFP/RFP minigene ratio, 48 h; ratio change, negative = inhibition: at 46.1 µM (top of the series) unless noted
# In short: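 S3 HeLa cells stably expressing lamin A-EGFP splicing minigene plus DsRed2, 600 cells/well, 48 h compound exposure at 37C. Laser-scanning cytometry; analysed as GFP (500-530 nm)/RFP (575-640 nm) total intensity ratio; 0.5% DMSO vehicle.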
# On the % scale 0 is the no-effect control and ±100 the full control effect; potency means the concentration at half of the fitted maximal effect.
Structure (SMILES),Potency,"ratio change, negative = inhibition"
O=C(NCCN1CCOCC1)c1cc(-c2ccccc2)on1,"inconclusive: 35.5 µM [rising, single point]",–
COc1ccc(N2CCN(C(=O)CSc3nnnn3-c3ccc4c(c3)OCCO4)CC2)cc1,–,inconclusive: -41.9%
N=c1nc(N2CCCCC2)cc(N)n1O,–,inconclusive: -3.48%
CCC1CN(C(=O)N2CCC(C(=O)NCc3cc(OC)ccc3OC)CC2)c2ccccc2O1 (stereo not drawn),–,inconclusive: 12.1% [at 46 µM]
O=C(CN(c1cccc(C(F)(F)F)c1)S(=O)(=O)c1ccc(Cl)c([N+](=O)[O-])c1)NCc1ccc(F)cc1,"inconclusive: 25.1 µM [inhibitor, partial curve]",–
COc1ccccc1Cn1c(CNS(=O)(=O)c2ccc(CC(C)C)cc2)nc2cccnc21,–,inconclusive: -19.4% [at 46 µM]
COc1cccc(-c2nnc(NC(=O)c3ccc(Cl)s3)o2)c1,–,inconclusive: -45.8%
Cc1ccc(C)c(NS(=O)(=O)c2c(C)ccc3nsnc23)c1,–,inconclusive: 16.2%
Cn1c(COc2ccc(Cl)cc2)nnc1SCc1ncc(-c2ccccc2)o1,"inconclusive: 12.6 µM [falling, single point]",–
O=c1c(CCc2ccccc2)nc2cnc(Oc3ccccc3)nc2n1C1CC1,–,inconclusive: -24.2%
COc1cc(OC)c(NC(=O)CC(C)=O)cc1Cl,–,inconclusive: 5.79%
COc1cccc(C(=O)Nc2cc(-c3ccccc3)nn2-c2ccccc2)c1,–,inactive: 3.81% [at 46 µM]
O=S(=O)(Nc1ccc(-c2ccc(N3CCCC3)nn2)cc1)c1cc(F)ccc1F,–,inactive: -4.06% [at 46 µM]
CCCCCCN=CC1=C(O)CC(C)(C)CC1=O,–,inconclusive: 20%
COc1ccc2[nH]c3c(=O)n(Cc4ccc(C(=O)N5CCC(C(N)=O)CC5)cc4)c(=S)[nH]c3c2c1,–,inactive: 5.35% [at 46 µM]
O=C(CCn1c(=O)oc2ccccc21)N1CCN(c2ccccc2Cl)CC1,–,inconclusive: -34.3%
COc1cccc(NC(=O)CSc2nc3c(oc4ccccc43)c(=O)[nH]2)c1,–,inactive: -1.07%
O=C(OCc1cncs1)c1cccs1,–,inconclusive: -4.06% [at 46 µM]
COc1ccc(/C=C/C2=CC(C)(C)NC(=S)N2)cc1OC,–,inactive: -0.312% [at 9.22 µM]
CN(C)/C=C/C(=O)c1ccc(Oc2ccccc2)cc1,–,inconclusive: 15.2% [at 46 µM]
COc1ccc(/C=N/Nc2ncnc3sc4c(c23)CCCC4)cc1OC,–,inactive: -5.15%

Structure (SMILES),Potency,"ratio change, negative = inhibition"
COc1ccc(CCN2C(=O)CN(C3CCC(C)CC3)C(=O)C2c2ccc(OC(C)C)c(OC)c2)cc1OC (stereo not drawn),–,inactive: -23% [at 46 µM]
CCCCCNC(=O)c1c[nH]c2ccc(S(=O)(=O)N3CCC4(CC3)OCCO4)cc2c1=O,–,inactive: -6.7%
Cc1ccsc1/C=C1\SC(N)=NC1=O,–,inactive: 3.23%
COc1cc(-c2cc(OC)c3c(C)oc(C)c3c(=O)c2)ccc1OC(=O)c1cccc(Cl)c1,"inconclusive: 28.2 µM [inhibitor, single point]",–
Cc1ccccc1C(=O)Nc1cccc(NC(=O)Cn2cnc3c(=O)n(C)c(=O)n(C)c32)c1,"inconclusive: 8.91 µM [inhibitor, single point]",–
CN(C)S(=O)(=O)c1cccc(NC(=S)Nc2ccc3cn[nH]c3c2)c1,–,inactive: -5.72% [at 46 µM]
COc1ccc(N2CCN(c3csc4ccccc4c3=O)CC2)cc1,–,inconclusive: -2.49% [at 46 µM]
O=C(c1cccs1)N(Cc1cc2ccccc2[nH]c1=O)c1ccccc1,"inconclusive: 14.1 µM [fluorescent, single point]",–
OCCCc1cn(-c2ccccc2)c2ccccc12,–,inconclusive: 18.8% [at 46 µM]
COc1ccc(C(CNC(=O)COc2cc(C)cc(C)c2)N2CCOCC2)cc1 (stereo not drawn),–,inactive: 8.46% [at 46 µM]
O=C(O)CC(CC(=O)Nc1nncs1)c1ccccc1 (stereo not drawn),–,inactive: -0.142%
CSc1ncc(C(=O)N2CCN(c3cccc(C(F)(F)F)c3)CC2)c(C)n1,–,inactive: -14.5% [at 46 µM]
Nc1nonc1-n1nnc(C(=O)c2ccccc2)c1-c1ccccc1,–,inactive: 9.61%
CCCCCC1CC(CC(=O)Nc2nncs2)C(=O)O1 (stereo not drawn),–,inactive: -1.63%
CN(c1ccc(OCC(=O)OCC(=O)Nc2cccc([N+](=O)[O-])c2)cc1)S(=O)(=O)c1ccc(F)cc1,–,inconclusive: 5.96% [at 46 µM]
Cc1cccc2sc(NC(=O)C3c4ccccc4Oc4ccccc43)nc12,"inconclusive: 10 µM [inhibitor, partial curve, poor fit]",–
Cn1c(=O)c(=O)n(C)c2cc(S(=O)(=O)NCCOc3ccccc3)ccc21,–,inactive: -6.94% [at 46 µM]
CC(C)CCN(C(=O)Nc1ccc(Cl)c(Cl)c1)C(C)c1cccs1 (stereo not drawn),–,inactive: -17.5% [at 46 µM]
CCOC(=O)N1CCN(Cc2nc(N)nc(Nc3ccc(OC)cc3)n2)CC1,–,inactive: -7.27%
CCOC(=O)c1ccc(OC(=O)c2cn(-c3cccc(OC)c3)c(=O)c3ccccc23)cc1,–,inconclusive: 20.3% [at 46 µM]
CCOc1ccc(N2CC(C(=O)NCc3nnnn3-c3ccc(C)c(C)c3)CC2=O)cc1 (stereo not drawn),–,inconclusive: 2.16% [at 46 µM]

Structure (SMILES),Potency,"ratio change, negative = inhibition"
O=C(NCCO)C(=O)NCC1OCCCN1S(=O)(=O)c1cccs1 (stereo not drawn),–,inactive: -5.86%
Cc1ccccc1Oc1cc(NC(=O)CCCn2nc(C)c([N+](=O)[O-])c2C)cc([N+](=O)[O-])c1,"inconclusive: 35.5 µM [falling, single point]",–
Nc1ccc(C(=O)O)c(O)c1,–,inconclusive: 9.23%
CC(C)c1nn2c(=O)cc(COC(=O)CNC(=O)c3ccccc3)nc2s1,–,inactive: -11.5% [at 46 µM]
C(=N/n1c2ccccc2c2ccccc21)/c1ccco1,–,inactive: 3.37%
O=C(COc1ccc(Cl)cc1Cl)NC(=S)Nc1ccc(CN2CCOCC2)cc1,–,inconclusive: 37.6% [at 46 µM]
CSc1ncccc1C(=O)NCC12CC3CC(CC(C3)C1)C2,–,inconclusive: -30.9% [at 46 µM]
O=C(NC1=NCCS1)c1ccc(N2CCCC2=O)cc1,–,inactive: 3.12% [at 46 µM]
CCOc1cccc2sc(N(CCN(C)C)C(=O)c3ccc(Br)s3)nc12,–,inconclusive: -25.9% [at 46 µM]
S=C(NCc1cccs1)Nc1cccc(Cl)c1Cl,"inconclusive: 35.5 µM [falling, single point]",–
CCOc1ccc(OCC)c(NC(=O)C2CCN(c3cnccn3)CC2)c1,–,inconclusive: 22.4% [at 46 µM]
O=C(c1ccc(COc2ccccc2Cl)o1)N1N=C(C(F)F)CC1(O)C(F)F (stereo not drawn),–,inconclusive: -10.1%
O=C(Cn1cncn1)NCc1ccc(Cl)cc1,–,inactive: -1.24%
COc1ccc(NC(=O)c2cccs2)c([N+](=O)[O-])c1,–,inconclusive: -2.74%
CC(C)(C)NCC(O)COc1ccccc1C(=O)CCc1ccccc1 (stereo not drawn),–,inconclusive: -8.75%
CC(=O)c1cc(C#N)c(NCc2ccccc2)nc1C,–,inconclusive: 32.3% [at 46 µM]
CCCNS(=O)(=O)c1ccc(CCC(=O)NCCc2ccc(OC)c(OC)c2)cc1,–,inconclusive: 6.83% [at 46 µM]
Cc1cccc(OCC(=O)Nc2ccc3nc(Nc4cccc(Cl)c4)cc(C)c3c2)c1,"inconclusive: 11.2 µM [cytotoxic, partial curve]",–
COc1ccc(C)cc1NC(=O)CSc1ccc(Cl)cc1,–,inconclusive: -40.2%
CCCCC/C=C\C/C=C\C/C=C\CCCCC(=O)O,–,inconclusive: -2.37%
CCOC(=O)c1oc2ccccc2c1NC(=O)c1ccc(Cl)s1,–,inactive: -12.9%

# Arranged by formula weight (descending): part of the list above.
Structure (SMILES),Potency,"ratio change, negative = inhibition"
O=C(COc1ccc(Cl)cc1Cl)NC(=S)Nc1ccc(CN2CCOCC2)cc1,–,inconclusive: 37.6% [at 46 µM]
CCCNS(=O)(=O)c1ccc(CCC(=O)NCCc2ccc(OC)c(OC)c2)cc1,–,inconclusive: 6.83% [at 46 µM]
CSc1ncccc1C(=O)NCC12CC3CC(CC(C3)C1)C2,–,inconclusive: -30.9% [at 46 µM]

# (list continues)

Structure (SMILES),Potency,"ratio change, negative = inhibition"
COc1ccc(NC(=O)Cn2ccn(-c3ccccc3)c(=O)c2=O)cc1,–,inactive: 20% [at 46 µM]
Cc1cc(-n2cnnn2)ccc1C(C)C,–,inconclusive: 15.2% [at 9.22 µM]
Fc1ccc(NC(=S)NC2CC3CCCC(C2)N3Cc2cccs2)cc1 (stereo not drawn),–,inconclusive: -22.6% [at 46 µM]
COc1cccc(-c2nc(SCC(=O)N3CCc4ccccc43)c3c(=O)n(C)c(=O)n(C)c3n2)c1,–,inconclusive: -6.03% [at 46 µM]
O=S(=O)(c1ccc2ccccc2c1)N1CCN(C(=S)Nc2ccc(F)c(Cl)c2)CC1,"inconclusive: 12.6 µM [falling, partial curve]",–
CC(C)Oc1ccc(CNC(=O)c2ccc3nc(Cc4ccccc4)oc3c2)cc1,–,inconclusive: -11.8% [at 46 µM]
CCC(CC)C(=O)Nc1ccc2nc(SCC(=O)N3c4ccccc4CC3C)sc2c1 (stereo not drawn),–,inconclusive: -29.2% [at 46 µM]
Cc1ccc(C(=O)c2coc3c2C(=O)C(=O)c2ccccc2-3)cc1,–,inconclusive: 32.8%
COc1ccc(NC(=O)c2sc3nc(Cc4ccccc4)cc(C(F)(F)F)c3c2N)cc1OC,–,inconclusive: 3.08%
Cn1nnnc1SCC(=O)N1CCCc2ccccc21,–,inactive: -7.14%
CN1CCN(CC(=O)O)CC1,–,inactive: 6.85%
CC(C)N1CCC(=NNC(=O)c2ccccc2[N+](=O)[O-])CC1,–,inconclusive: -1.43%
O=C(CCCn1c(=O)c2cccn2c2ccccc21)Nc1cccc(Cl)c1,–,inactive: -17.7% [at 46 µM]
Cc1ccc2onc(CC(=O)N3CCN(c4ccccc4F)CC3)c2c1,"inconclusive: 2.82 µM [falling, full curve]",–
CC(=O)c1cc(-c2ccc(F)cc2)n(CC(=O)NC2CCCCCC2)c1C,–,inconclusive: 52.6% [at 46 µM]
Cn1c(=O)c(=O)n(C)c2cc(S(=O)(=O)NCc3ccc(Cl)cc3)ccc21,"inconclusive: 0.1 µM [activator, full curve]",–
N=C(N)SCc1nc2ccccn2c1Br,–,inconclusive: -41.4%
CCC(C)NC(=O)C1CCN(S(=O)(=O)c2ccc(OC)cc2)CC1 (stereo not drawn),–,inconclusive: -6.59%
CCOC(=O)c1c(C)[nH]c(C(=O)COC(=O)CNC(=O)c2ccccc2Cl)c1C,–,inconclusive: -30%
COc1ncc2nc(-c3ccc(Cl)cc3)c(=O)n(Cc3cccs3)c2n1,–,inactive: 17.8%

# Three of these compounds in a different format:
Structure (SMILES)	Potency	ratio change, negative = inhibition
CCCCC/C=C\C/C=C\C/C=C\CCCCC(=O)O	–	inconclusive: -2.37%
CCOC(=O)c1oc2ccccc2c1NC(=O)c1ccc(Cl)s1	–	inactive: -12.9%
COc1ccc(NC(=O)Cn2ccn(-c3ccccc3)c(=O)c2=O)cc1	–	inactive: 20% [at 46 µM]
